Reference: patent US10933141B2, “Formulations with reduced degradation of polysorbate” (Genentech, Inc., priority 2015, dated 2021)
The name of at least one read-out is uncertain.

Experiment: Solubilization of particles from oxidative PS20 degradation (HIAC)
Format: physicochemical
Conditions: 0.02% (w/v) PS20 stored 27 months at 5° C.
Experimental: Subvisible particles were measured using a HIAC 9703 particle counter equipped with an HRDL-150 detector and a 1 mL syringe. Performance of the instrument was verified with NIST-traceable 2 μm Polystyrene bead standards at 3000 counts/mL before each measurement session. The HIAC instrument was configured to a 10 mL/min flow rate, 0.1 mL tare volume, and 0.4 mL sample volume. The samples were analyzed using 4 runs of 0.4 mL sips, with the first run of each sample was discarded to prevent measurement error due to sample carryover. Results were reported as the average values for 1.4, 2, 5, 10, 15, and 25, 50 μm analysis filter sizes.
Different concentrations of HP-β-CD were tested for their ability to solubilize particles produced as a result of oxidative PS20 degradation. Solutions of concentrated HP-β-CD were prepared in triplicate in pH 5.5 buffer. Protein-free samples containing 0.02% (w/v) PS20 were stored for 27 months at 5° C., resulting in oxidative PS20 degradation and the formation of visible and subvisible particles related to PS20 degradation products. Each degraded PS20 solution was divided into 3 aliquots and concentrated excipient was spiked into each the aliquots. […] The following day, subvisible particle counts were measured using a HIAC 9703 particle counter.

Substance: 2-hydroxypropyl-β-cyclodextrin [HP-β-CD]
- resolubilization of subvisible particles (5% HP-β-CD): effectively resolubilizes particles greater than or equal to 2 microns
- resolubilization of subvisible particles (15% HP-β-CD): effectively resolubilizes particles greater than or equal to 1.4 microns
